From patent US20240190838A1, “LZK-TARGETING DEGRADERS AND METHODS OF USE” (The U.S.A., as represented by the Secretary, Department of …, priority 2020, published 2024)
Some results were stated once for a whole list of compounds, not compound by compound.

Columns and labels:
LZK [1] = target: T1, LZK (Homo sapiens, UniProt O43283); test: LZK inhibition in cells monitored by downstream JNK phosphorylation (dox-induced LZK); assay type: cell-based; parameters: V5 (named only in the vector); expressed in transfected cells; host or cells: CAL33 HNSCC cells, lentiviral T-REx system, induced with doxycycline; details: CAL33 cells induced with doxycycline; 0-10 μM
T1 sequence (O43283 1-966): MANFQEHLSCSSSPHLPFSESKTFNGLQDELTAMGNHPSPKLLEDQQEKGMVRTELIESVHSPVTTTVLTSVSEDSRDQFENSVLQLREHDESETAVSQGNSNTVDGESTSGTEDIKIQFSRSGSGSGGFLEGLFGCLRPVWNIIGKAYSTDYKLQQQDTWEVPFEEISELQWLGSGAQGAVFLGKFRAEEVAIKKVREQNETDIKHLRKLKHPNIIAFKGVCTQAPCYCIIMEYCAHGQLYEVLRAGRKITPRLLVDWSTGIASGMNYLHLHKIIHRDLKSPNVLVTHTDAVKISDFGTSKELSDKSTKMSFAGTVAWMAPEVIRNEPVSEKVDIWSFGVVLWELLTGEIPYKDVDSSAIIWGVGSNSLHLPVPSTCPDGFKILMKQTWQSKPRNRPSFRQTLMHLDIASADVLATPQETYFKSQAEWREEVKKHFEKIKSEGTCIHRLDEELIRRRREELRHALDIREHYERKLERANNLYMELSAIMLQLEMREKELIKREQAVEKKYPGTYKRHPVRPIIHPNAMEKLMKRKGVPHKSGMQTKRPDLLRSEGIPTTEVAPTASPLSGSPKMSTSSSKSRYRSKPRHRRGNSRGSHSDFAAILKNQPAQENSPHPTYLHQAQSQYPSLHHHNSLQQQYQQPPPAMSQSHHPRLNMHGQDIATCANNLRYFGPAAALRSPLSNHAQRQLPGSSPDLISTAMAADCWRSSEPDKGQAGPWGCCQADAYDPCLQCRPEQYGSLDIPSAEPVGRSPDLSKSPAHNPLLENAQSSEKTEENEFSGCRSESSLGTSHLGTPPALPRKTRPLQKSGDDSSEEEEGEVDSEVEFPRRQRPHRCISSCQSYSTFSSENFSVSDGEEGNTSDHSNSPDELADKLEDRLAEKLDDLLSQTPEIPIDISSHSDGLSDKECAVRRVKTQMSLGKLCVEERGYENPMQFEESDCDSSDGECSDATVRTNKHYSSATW
Description: (§1) The ViraPower HiPerform T-REx Gateway Expression System (Invitrogen) was used to generate cells with tetracycline-inducible expression of LZK. In brief, wild-type (WT) or drug-resistant mutant (Q240S) LZK (cloned into pLenti6.3/TO/V5-DEST vector) and pLenti3.3/TR (for tetracycline repressor expression) were transfected into 293FT cells using Lipofectamine 2000 to generate lentiviral stock. Cell lines were generated by antibiotic selection (blasticidin [Gibco] and geneticin [Gibco]). Doxycycline (Sigma-Aldrich) was used at 1 μg/mL to induce LZK expression.
Generally, cells were plated in six-well or 35-mm plates for 24 hours, after which doxycycline was added or treatment with specific inhibitor was administered using 50 FBS media for 48 hours. […] Protein concentrations were determined from the cell lysate by using 660 nm Protein Assay Reagent (Pierce). […] The membranes were incubated with the specific antibodies overnight in […] at 4° C. followed by a 1 hour incubation with the appropriate horseradish peroxidase-conjugated secondary antibodies and signal was detected by chemiluminescence (Thermo Fisher). […]

LZK [2] = target: T1, LZK; test: LZK degradation (doxycycline-induced LZK expression, immunoblot) in CAL33 cells; assay type: cell-based; parameters: V5 (named only in the vector); expressed in transfected cells; host or cells: CAL33 HNSCC cells, lentiviral T-REx system, induced with doxycycline; details: CAL33, doxycycline 48 hours, LZK PROTAC 24 hours, 0-10 μM
Description: as §1
Generally, cells were plated in six-well or 35-mm plates for 24 hours, after which doxycycline was added or treatment with specific inhibitor was administered using 50 FBS media for 48 hours. […] Protein concentrations were determined from the cell lysate by using 660 nm Protein Assay Reagent (Pierce). […] The membranes were incubated with the specific antibodies overnight in […] at 4° C. followed by a 1 hour incubation with the appropriate horseradish peroxidase-conjugated secondary antibodies and signal was detected by chemiluminescence (Thermo Fisher).

Structure (SMILES)	JNK signaling inhibition by targeted degraders (LZK [1])	LZK degradation / dox-induced LZK expression (LZK [2])
N#Cc1ccnc(Nc2cc(C3CCN(C(=O)CCCCCCC(=O)NCCCCNC(=O)CNc4cccc5c4C(=O)N(C4CCC(=O)NC4=O)C5=O)CC3)cc(N3CCC(F)(F)C3)n2)c1 (stereo not shown) [Compound 6]	inhibited JNK signaling at higher concentrations	promoted LZK degradation
N#Cc1ccnc(Nc2cc(C3CCN(C(=O)c4cncc(C(=O)NCCCCNC(=O)CNc5cccc6c5C(=O)N(C5CCC(=O)NC5=O)C6=O)c4)CC3)cc(N3CCC(F)(F)C3)n2)c1 (stereo not shown) [Compound 8]	inhibited JNK signaling at higher concentrations	promoted LZK degradation
